According to paper PMC6615345:
No constants are given. Whether binding was seen depends on the method and setting. In cells and extracts the contact can be indirect. Where a sequence is shown, tags or fusion partners need not be part of it.

Target: T1, GST-tagged Wls-CT (residues 493-541) (UniProt Q5T9L3)
T1 sequence: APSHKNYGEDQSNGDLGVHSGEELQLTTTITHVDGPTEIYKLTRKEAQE
Experiment: pull-down; GST-tagged proteins bound to glutathione sepharose beads, incubated with S-tagged proteins (bacterial lysates in PBS, 1% Triton X-100); eluted with SDS loading dye; western blot with HRP-conjugated S-tag antibody; only the target purified

## S-tagged C-terminal portion of WlsX (Wls-CTX) (human) (domain or fragment)
  binding: no binding
